Where a SMILES comes first, the peptide text is derived from it. [ ]: non-standard residue; d: D form. The star is where a group is joined. Palmitoyl = CCCCCCCCCCCCCCCC(=O)*; Lauroyl = CCCCCCCCCCCC(=O)*; Pentanoyl = CCCCC(=O)*; AEEA = NCCOCCOCC(=O)O; Ahx = NCCCCCC(=O)O; βAla = NCCC(=O)O

A short description of data set [1]: Circular dichroism in POPG. It is filed as physicochemical. The settings on record: CD, 1.31 mM POPG in PBS pH 7.4, peptide 0.13 mM.
Data set [2] in a line: ITC, binding to zwitterionic membrane. The settings on record: POPC LUVs, 25 °C; for n: stoichiometry (phospholipids per peptide). How it is done:
The ITC experiments were performed according to the previously reported protocol in PBS (pH 7.4) at 25 °C using an AutoITC isothermal titration calorimeter (MicroCal Inc., Northampton, USA) with a 1.4491-mL sample and reference cells filled with distilled water. In each experiment, 29 injections of 10.02 µL each (2 µL for the first only) of a liposome solution at a concentration of 1.31 mM were added into a 0.05 mM and/or 0.1 mM peptide solution. An initial 2-μL injection was discarded from each dataset in order to remove the effect of titrant diffusion across the syringe tip during the equilibration process. Each injection lasted 20 s. The titrant was injected at 4 min intervals to ensure that the titration peak returned to the baseline before the next injection. To ensure a homogeneous mixing in the cell, the stirrer speed was kept constant at 300 rpm.
A complete binding of the peptide to lipid vesicles provides the possibility for determination of the total binding enthalpy (∆H) as well as a binding constant (Ka), reflecting the affinity of the lipopeptide to liposomes, stoichiometry of binding (n), that is, the number of phospholipids per peptide, by fitting the titration result data to one set of sites’ model using Origin 7 from MicroCal. Changes in entropy (∆S) and the Gibbs free energy (∆G) were calculated from Equation (1), where factor 55.5 is the molar concentration of water, R is the gas constant (1.986 cal·mol^−1·K^−1) and T is the absolute temperature:∆G = -RTln(55.5Ka) = ∆H-T∆S(1)
The liposomes for ITC experiments were made of POPC or POPG lipids. The lipids were dissolved in a chloroform:methanol (2:1; v/v) mixture, evaporated under nitrogen and desiccated under vacuum overnight to remove any residual solvents. Afterwards, the dry lipid film was resuspended in a phosphate buffer solution and shaken for 2 h at room temperature (phase transition point, Tm = −2 °C) to obtain multilamellar vesicles (MLVs). Finally, the MLV suspension was extruded through polycarbonate membranes (100 nm in diameter, Whatman International Ltd., Dorset, UK) using a mini-extruder (Avanti Polar Lipids, Inc., Alabaster, AL, USA) to obtain large unilamellar vesicles (LUVs) used in titration experiments.

Consider `CC[C@H](C)[C@H](NC(=O)COCCOCCNC(=O)[C@H](Cc1c[nH]cn1)NC(=O)CCNC(=O)CCCCCN)C(=O)N[C@@H](CCCCN)C(=O)N[C@@H](CCCCN)C(=O)N[C@H](C(=O)N[C@@H](CC(C)C)C(=O)N[C@@H](CO)C(=O)N[C@@H](CCCCN)C(=O)N[C@H](C(=O)N[C@@H](CCCCN)C(=O)N[C@@H](CCCCN)C(=O)N[C@@H](CC(C)C)C(=O)N[C@@H](CC(C)C)C(N)=O)[C@@H](C)CC)[C@@H](C)CC` [AHX-CAR-PEG-DK5] (H-[Ahx][βAla]H[AEEA]IKKILSKIKKLL-NH2), for which the α-Helicity in data set [1] was 87.5%.
In the case of `CC[C@H](C)[C@H](NC(=O)CCCCCN)C(=O)N[C@@H](CCCCN)C(=O)N[C@@H](CCCCN)C(=O)N[C@H](C(=O)N[C@@H](CC(C)C)C(=O)N[C@@H](CO)C(=O)N[C@@H](CCCCN)C(=O)N[C@H](C(=O)N[C@@H](CCCCN)C(=O)N[C@@H](CCCCN)C(=O)N[C@@H](CC(C)C)C(=O)N[C@@H](CC(C)C)C(N)=O)[C@@H](C)CC)[C@@H](C)CC` [AHX-DK5] (H-[Ahx]IKKILSKIKKLL-NH2), the α-Helicity in data set [1] turned out to be 85.6%.
As for `CCCCC(=O)NCCC(=O)N[C@@H](Cc1c[nH]cn1)C(=O)NCCOCCOCC(=O)N[C@H](C(=O)N[C@@H](CCCCN)C(=O)N[C@@H](CCCCN)C(=O)N[C@H](C(=O)N[C@@H](CC(C)C)C(=O)N[C@@H](CO)C(=O)N[C@@H](CCCCN)C(=O)N[C@H](C(=O)N[C@@H](CCCCN)C(=O)N[C@@H](CCCCN)C(=O)N[C@@H](CC(C)C)C(=O)N[C@@H](CC(C)C)C(N)=O)[C@@H](C)CC)[C@@H](C)CC)[C@@H](C)CC` [C5-CAR-PEG-DK5] ({Pentanoyl-βAla}-H[AEEA]IKKILSKIKKLL-NH2), the α-Helicity in data set [1] was 94.7%.
Regarding `CCCCCCCCCCCC(=O)NCCC(=O)N[C@@H](Cc1c[nH]cn1)C(=O)NCCOCCOCC(=O)N[C@H](C(=O)N[C@@H](CCCCN)C(=O)N[C@@H](CCCCN)C(=O)N[C@H](C(=O)N[C@@H](CC(C)C)C(=O)N[C@@H](CO)C(=O)N[C@@H](CCCCN)C(=O)N[C@H](C(=O)N[C@@H](CCCCN)C(=O)N[C@@H](CCCCN)C(=O)N[C@@H](CC(C)C)C(=O)N[C@@H](CC(C)C)C(N)=O)[C@@H](C)CC)[C@@H](C)CC)[C@@H](C)CC` [C12-CAR-PEG-DK5] ({Lauroyl-βAla}-H[AEEA]IKKILSKIKKLL-NH2), in data set [1], the α-Helicity is 86.3%. In data set [2], this compound yielded a TΔS of 41.4 ± 0.795 kJ/mol, a ΔG of -40.6 ± 0.795 kJ/mol, a ΔH of 0.753 ± 0.042 kJ/mol and a n of 1.36 ± 0.04.
In the case of `CCCCCCCCCCCCCCCC(=O)NCCC(=O)N[C@@H](Cc1c[nH]cn1)C(=O)NCCOCCOCC(=O)N[C@H](C(=O)N[C@@H](CCCCN)C(=O)N[C@@H](CCCCN)C(=O)N[C@H](C(=O)N[C@@H](CC(C)C)C(=O)N[C@@H](CO)C(=O)N[C@@H](CCCCN)C(=O)N[C@H](C(=O)N[C@@H](CCCCN)C(=O)N[C@@H](CCCCN)C(=O)N[C@@H](CC(C)C)C(=O)N[C@@H](CC(C)C)C(N)=O)[C@@H](C)CC)[C@@H](C)CC)[C@@H](C)CC` [C16-CAR-PEG-DK5] ({Palmitoyl-βAla}-H[AEEA]IKKILSKIKKLL-NH2), the α-Helicity in data set [1] was found to be 85.2%.
Turning to `CCCCC(=O)N[C@H](C(=O)N[C@@H](CCCCN)C(=O)N[C@@H](CCCCN)C(=O)N[C@H](C(=O)N[C@@H](CC(C)C)C(=O)N[C@@H](CO)C(=O)N[C@@H](CCCCN)C(=O)N[C@H](C(=O)N[C@@H](CCCCN)C(=O)N[C@@H](CCCCN)C(=O)N[C@@H](CC(C)C)C(=O)N[C@@H](CC(C)C)C(N)=O)[C@@H](C)CC)[C@@H](C)CC)[C@@H](C)CC` [Compound C5-DK5] (Pentanoyl-IKKILSKIKKLL-NH2), the α-Helicity in data set [1] was 89.6%.
In the case of `CCCCCCCCCCCC(=O)N[C@H](C(=O)N[C@@H](CCCCN)C(=O)N[C@@H](CCCCN)C(=O)N[C@H](C(=O)N[C@@H](CC(C)C)C(=O)N[C@@H](CO)C(=O)N[C@@H](CCCCN)C(=O)N[C@H](C(=O)N[C@@H](CCCCN)C(=O)N[C@@H](CCCCN)C(=O)N[C@@H](CC(C)C)C(=O)N[C@@H](CC(C)C)C(N)=O)[C@@H](C)CC)[C@@H](C)CC)[C@@H](C)CC` [Compound C12-DK5] (Lauroyl-IKKILSKIKKLL-NH2), the α-Helicity in data set [1] turned out to be 83.7%. In data set [2], this compound yielded a TΔS of 35.8 ± 1.09 kJ/mol, a ΔG of -35.1 ± 1.09 kJ/mol, a ΔH of 0.753 ± 0.13 kJ/mol and a n of 2.65 ± 0.31.
Regarding `CCCCCCCCCCCCCCCC(=O)N[C@H](C(=O)N[C@@H](CCCCN)C(=O)N[C@@H](CCCCN)C(=O)N[C@H](C(=O)N[C@@H](CC(C)C)C(=O)N[C@@H](CO)C(=O)N[C@@H](CCCCN)C(=O)N[C@H](C(=O)N[C@@H](CCCCN)C(=O)N[C@@H](CCCCN)C(=O)N[C@@H](CC(C)C)C(=O)N[C@@H](CC(C)C)C(N)=O)[C@@H](C)CC)[C@@H](C)CC)[C@@H](C)CC` [Compound C16-DK5] (Palmitoyl-IKKILSKIKKLL-NH2), the α-Helicity in data set [1] is 100%.

These data come from publication PMC8269107, “Lipidation of Temporin-1CEb Derivatives as a Tool for Activity Improvement, Pros and Cons of the Approach” (International Journal of Molecular Sciences, 2021).
